The list shows a part of the results, in another mix than the full data.

Chains of the proteins cited; added tags and fusions are not shown. Lines headed by an entry give the natural chain unless they say otherwise; changes in a name come on top.
UniProt Q16527: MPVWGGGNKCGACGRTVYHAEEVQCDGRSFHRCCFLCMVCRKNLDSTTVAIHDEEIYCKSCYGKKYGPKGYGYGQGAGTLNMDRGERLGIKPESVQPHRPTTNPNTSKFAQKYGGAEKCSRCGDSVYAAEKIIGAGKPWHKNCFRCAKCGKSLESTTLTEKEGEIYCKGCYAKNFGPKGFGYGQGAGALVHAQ
UniProt Q15366, whole entry, looked up: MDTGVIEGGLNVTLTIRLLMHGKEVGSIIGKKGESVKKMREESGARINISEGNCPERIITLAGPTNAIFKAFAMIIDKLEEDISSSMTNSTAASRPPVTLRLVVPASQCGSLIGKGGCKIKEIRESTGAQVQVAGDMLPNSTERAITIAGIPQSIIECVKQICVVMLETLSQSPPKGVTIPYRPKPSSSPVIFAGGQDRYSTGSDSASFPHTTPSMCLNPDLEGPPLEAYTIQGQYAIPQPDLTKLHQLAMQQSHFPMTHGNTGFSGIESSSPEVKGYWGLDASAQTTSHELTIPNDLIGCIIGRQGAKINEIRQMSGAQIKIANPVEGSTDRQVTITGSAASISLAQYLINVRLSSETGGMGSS
UniProt Q15181: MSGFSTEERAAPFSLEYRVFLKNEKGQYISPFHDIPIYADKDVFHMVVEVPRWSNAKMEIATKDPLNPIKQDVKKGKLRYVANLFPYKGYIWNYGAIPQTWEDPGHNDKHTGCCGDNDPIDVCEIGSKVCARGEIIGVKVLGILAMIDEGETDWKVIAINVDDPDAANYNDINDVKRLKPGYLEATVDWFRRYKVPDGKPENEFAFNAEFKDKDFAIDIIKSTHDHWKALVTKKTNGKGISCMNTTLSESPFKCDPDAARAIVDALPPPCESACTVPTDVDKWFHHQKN
UniProt Q1KMD3: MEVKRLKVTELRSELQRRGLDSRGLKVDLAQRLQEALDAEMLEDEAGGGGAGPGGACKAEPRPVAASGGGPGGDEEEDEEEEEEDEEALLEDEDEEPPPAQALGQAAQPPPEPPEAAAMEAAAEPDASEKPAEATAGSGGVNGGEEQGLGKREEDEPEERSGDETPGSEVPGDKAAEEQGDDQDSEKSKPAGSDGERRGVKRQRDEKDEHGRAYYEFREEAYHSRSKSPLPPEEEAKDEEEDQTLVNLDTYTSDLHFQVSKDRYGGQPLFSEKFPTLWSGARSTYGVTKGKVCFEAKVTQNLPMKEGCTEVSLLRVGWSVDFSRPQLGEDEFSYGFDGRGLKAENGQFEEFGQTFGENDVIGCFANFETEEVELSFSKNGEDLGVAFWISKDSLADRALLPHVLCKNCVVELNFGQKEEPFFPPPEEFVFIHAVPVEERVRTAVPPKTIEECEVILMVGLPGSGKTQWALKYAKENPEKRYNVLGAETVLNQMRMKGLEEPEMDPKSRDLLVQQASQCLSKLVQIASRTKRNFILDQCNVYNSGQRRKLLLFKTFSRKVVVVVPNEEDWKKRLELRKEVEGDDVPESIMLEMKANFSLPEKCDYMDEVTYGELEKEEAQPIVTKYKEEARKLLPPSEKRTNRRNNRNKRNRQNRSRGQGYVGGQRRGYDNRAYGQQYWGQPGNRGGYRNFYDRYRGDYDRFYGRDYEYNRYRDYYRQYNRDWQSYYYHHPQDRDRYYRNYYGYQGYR
UniProt Q15527: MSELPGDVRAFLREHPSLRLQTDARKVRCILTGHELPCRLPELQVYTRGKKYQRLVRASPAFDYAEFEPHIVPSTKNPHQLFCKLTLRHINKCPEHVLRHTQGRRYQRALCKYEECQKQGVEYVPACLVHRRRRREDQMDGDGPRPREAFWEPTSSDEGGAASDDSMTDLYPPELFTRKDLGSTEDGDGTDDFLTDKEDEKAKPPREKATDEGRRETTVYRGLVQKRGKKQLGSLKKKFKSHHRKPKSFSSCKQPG
UniProt Q15758: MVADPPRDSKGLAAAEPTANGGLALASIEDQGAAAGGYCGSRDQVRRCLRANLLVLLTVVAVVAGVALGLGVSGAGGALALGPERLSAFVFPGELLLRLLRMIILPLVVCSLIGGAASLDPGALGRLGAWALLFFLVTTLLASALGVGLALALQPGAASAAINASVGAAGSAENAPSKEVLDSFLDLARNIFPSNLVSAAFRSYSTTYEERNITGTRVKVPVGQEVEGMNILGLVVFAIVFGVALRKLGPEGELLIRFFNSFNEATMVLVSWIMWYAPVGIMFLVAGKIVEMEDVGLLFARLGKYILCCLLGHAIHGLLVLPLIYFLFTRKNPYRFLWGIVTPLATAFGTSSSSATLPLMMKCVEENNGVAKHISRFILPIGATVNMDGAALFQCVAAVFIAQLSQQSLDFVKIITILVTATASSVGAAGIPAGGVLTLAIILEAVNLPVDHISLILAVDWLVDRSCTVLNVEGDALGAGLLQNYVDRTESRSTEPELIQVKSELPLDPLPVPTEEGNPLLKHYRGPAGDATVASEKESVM
UniProt Q15645: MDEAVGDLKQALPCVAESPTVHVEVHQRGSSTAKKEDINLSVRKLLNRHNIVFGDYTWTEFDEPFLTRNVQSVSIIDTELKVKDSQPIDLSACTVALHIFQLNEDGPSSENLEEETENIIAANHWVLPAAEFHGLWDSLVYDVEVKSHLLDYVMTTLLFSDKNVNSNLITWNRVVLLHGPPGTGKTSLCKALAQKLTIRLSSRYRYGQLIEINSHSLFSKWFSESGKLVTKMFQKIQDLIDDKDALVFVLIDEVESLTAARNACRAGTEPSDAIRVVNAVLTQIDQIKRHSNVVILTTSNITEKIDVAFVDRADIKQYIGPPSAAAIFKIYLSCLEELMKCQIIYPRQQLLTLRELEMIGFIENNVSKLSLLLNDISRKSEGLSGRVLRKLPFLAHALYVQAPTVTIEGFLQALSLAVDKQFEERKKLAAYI
UniProt Q53RE8: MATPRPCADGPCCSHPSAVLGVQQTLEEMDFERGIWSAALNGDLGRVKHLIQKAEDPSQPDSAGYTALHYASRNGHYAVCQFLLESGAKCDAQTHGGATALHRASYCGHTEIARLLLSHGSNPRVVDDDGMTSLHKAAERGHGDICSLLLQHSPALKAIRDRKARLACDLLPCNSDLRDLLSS
UniProt Q16513: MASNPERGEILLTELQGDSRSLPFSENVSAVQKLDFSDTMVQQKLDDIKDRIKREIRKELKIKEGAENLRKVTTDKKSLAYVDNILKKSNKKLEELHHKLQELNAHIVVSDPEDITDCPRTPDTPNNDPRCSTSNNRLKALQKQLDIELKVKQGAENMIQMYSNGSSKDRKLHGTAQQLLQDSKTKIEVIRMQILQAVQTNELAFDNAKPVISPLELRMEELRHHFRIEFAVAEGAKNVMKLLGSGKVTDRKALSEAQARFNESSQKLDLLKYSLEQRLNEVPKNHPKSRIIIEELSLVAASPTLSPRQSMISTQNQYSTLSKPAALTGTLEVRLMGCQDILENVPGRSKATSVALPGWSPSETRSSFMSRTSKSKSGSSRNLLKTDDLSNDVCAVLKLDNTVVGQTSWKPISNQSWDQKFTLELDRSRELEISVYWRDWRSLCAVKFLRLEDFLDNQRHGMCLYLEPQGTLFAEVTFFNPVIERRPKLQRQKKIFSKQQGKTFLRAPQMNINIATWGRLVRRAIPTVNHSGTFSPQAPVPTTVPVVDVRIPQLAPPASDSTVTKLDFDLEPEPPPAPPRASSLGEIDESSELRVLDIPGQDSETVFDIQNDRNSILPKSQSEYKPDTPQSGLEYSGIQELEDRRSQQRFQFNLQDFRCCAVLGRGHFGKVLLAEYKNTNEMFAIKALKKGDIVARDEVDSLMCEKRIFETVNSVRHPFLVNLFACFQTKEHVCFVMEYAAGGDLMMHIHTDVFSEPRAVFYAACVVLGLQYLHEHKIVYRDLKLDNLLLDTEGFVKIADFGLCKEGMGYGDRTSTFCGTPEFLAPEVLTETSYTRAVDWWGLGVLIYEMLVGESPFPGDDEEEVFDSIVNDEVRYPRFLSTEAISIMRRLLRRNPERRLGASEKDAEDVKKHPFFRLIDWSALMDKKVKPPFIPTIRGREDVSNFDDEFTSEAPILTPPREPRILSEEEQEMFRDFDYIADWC
UniProt Q15043: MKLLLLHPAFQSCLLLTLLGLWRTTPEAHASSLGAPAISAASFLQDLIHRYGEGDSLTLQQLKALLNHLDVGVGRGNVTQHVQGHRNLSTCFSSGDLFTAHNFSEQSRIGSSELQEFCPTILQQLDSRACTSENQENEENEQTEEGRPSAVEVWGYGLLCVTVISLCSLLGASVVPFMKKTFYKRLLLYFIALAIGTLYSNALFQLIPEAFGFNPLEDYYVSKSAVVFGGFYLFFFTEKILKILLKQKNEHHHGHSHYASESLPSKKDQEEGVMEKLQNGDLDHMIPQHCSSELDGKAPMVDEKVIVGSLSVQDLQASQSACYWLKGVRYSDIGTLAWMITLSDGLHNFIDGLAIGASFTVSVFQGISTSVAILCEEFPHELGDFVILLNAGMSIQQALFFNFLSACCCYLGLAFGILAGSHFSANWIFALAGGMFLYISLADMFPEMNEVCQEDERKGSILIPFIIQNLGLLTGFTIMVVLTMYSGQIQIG
UniProt Q16576, whole entry, looked up: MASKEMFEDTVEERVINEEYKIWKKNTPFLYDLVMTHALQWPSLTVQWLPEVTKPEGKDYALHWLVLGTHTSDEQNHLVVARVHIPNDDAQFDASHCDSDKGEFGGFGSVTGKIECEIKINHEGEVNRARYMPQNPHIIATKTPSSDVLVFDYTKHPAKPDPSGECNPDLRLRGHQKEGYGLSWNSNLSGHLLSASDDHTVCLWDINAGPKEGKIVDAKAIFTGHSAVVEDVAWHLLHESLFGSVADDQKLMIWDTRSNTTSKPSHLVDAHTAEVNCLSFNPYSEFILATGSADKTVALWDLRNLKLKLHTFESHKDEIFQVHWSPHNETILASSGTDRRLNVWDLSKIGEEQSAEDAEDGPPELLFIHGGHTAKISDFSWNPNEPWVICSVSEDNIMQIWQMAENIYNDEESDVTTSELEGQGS
UniProt Q15648, whole entry, looked up: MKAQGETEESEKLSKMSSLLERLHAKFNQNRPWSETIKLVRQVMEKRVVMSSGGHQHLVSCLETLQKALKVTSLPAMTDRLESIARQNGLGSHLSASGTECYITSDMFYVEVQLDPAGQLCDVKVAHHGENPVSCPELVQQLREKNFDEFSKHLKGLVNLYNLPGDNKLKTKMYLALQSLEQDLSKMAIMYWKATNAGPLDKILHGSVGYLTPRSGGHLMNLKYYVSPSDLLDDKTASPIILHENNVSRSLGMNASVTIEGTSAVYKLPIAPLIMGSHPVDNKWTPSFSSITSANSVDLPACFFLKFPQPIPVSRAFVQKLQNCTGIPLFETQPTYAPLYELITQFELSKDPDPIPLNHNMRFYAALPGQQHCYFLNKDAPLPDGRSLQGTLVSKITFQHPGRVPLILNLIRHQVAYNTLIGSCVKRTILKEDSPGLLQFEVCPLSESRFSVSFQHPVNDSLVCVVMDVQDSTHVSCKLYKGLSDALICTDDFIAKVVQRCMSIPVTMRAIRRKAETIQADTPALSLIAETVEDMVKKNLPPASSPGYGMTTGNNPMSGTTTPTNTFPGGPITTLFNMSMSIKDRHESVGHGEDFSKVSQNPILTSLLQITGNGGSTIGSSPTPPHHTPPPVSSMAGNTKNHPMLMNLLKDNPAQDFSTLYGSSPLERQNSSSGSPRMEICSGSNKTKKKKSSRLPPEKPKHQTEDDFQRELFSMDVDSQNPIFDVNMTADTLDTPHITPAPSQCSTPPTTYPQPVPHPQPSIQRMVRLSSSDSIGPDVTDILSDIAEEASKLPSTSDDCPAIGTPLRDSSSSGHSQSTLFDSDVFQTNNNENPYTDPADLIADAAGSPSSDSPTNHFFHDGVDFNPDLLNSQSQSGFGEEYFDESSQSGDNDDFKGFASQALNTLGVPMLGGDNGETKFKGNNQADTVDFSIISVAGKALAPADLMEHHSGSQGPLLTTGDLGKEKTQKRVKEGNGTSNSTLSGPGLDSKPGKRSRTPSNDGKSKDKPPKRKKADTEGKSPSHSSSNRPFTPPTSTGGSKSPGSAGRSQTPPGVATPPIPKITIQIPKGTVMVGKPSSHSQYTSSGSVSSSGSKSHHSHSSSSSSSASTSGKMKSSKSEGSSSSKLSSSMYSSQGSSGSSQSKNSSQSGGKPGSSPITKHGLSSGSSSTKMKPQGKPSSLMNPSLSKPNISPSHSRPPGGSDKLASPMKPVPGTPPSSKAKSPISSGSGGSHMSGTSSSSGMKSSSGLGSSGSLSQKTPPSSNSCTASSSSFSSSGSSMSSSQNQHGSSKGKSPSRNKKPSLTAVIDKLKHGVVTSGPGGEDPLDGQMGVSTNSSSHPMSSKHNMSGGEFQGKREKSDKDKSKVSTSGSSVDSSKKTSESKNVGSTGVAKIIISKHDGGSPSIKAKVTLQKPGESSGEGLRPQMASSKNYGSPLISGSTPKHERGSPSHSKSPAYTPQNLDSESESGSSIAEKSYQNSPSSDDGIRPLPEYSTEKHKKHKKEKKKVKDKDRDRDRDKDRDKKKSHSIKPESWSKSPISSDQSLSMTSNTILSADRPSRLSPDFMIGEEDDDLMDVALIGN

Compound in this assay: COC(=O)C#Cc1ccccc1 [methyl 3-phenylpropiolate]
Briefly: log2 ratio of iodoacetamide-alkyne labeling of the cysteine site, DMSO over compound (competition); higher = stronger covalent engagement of the cysteine by the compound, active = 1 or more. As to conditions: 500 µM; treatment time 1 h; system: HEK293T cell lysate. Put shortly: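 Reporter intensities give each cysteine's log2 competition ratio as the mean of control channels over the mean of compound channels. The samples were HEK293T lysate (2 mg/mL) given vehicle or electrophile (500 µM, 1 h, ambient temperature), then iodoacetamide alkyne (1 h), followed by click coupling to sCIP-TMT reagents, pooling, trypsin digestion overnight at 37 °C, streptavidin enrichment, acid elution, Orbitrap Eclipse LC-MS/MS with FAIMS and FragPipe quantification. Duplicate channels and three replicates were run, and cysteines quantified in only one replicate were discarded.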
Turning to CCDC58 C74 (UniProt Q4VC31), the “log2 ratio of iodoacetamide-alkyne labeling” value (“log2 ratio” below) is inactive: -0.211.

For CSRP2 C167 (UniProt Q16527), the “log2 ratio” value is inactive: -0.0209.

With PCBP2 C217 (UniProt Q15366), the “log2 ratio” value was inactive: 0.323.

As for TBCE C371 (UniProt Q15813), the “log2 ratio” value is inactive: 0.185.

In the case of UniProt Q15149_C3295, the “log2 ratio” value is inactive: 0.679.

Take PDS5A C581 (UniProt Q29RF7): the “log2 ratio” value is inactive: 0.744.

Consider PPA1 C242 (UniProt Q15181), for which the “log2 ratio” value is inactive: -0.191.

On to UniProt Q15149_C3299, for which the “log2 ratio” value was inactive: 0.33.

For HNRNPUL2 C538 (UniProt Q1KMD3), the “log2 ratio” value is inactive: 0.485.

Consider R3HDM1 C304 (UniProt Q15032), for which the “log2 ratio” value was inactive: 0.1.

For the target ELF2 C307 (UniProt Q15723), the “log2 ratio” value was inactive: 0.387.

On to SURF2 C111 (UniProt Q15527), for which the “log2 ratio” value was inactive: 0.0646.

Turning to SLC1A5 C363 (UniProt Q15758), the “log2 ratio” value was inactive: 0.266.

Turning to PPA1 C274 (UniProt Q15181), the “log2 ratio” value is inactive: 0.425.

As to LRRFIP1 C750 (UniProt Q32MZ4), the “log2 ratio” value was inactive: 0.706.

For TRIP13 C14 (UniProt Q15645), the “log2 ratio” value is inactive: 0.337.

Consider DPYSL2 C504 (UniProt Q16555), for which the “log2 ratio” value was inactive: 0.19.

For the target GLYR1 C231 (UniProt Q49A26), the “log2 ratio” value is inactive: 0.13.

As for UniProt Q16352_C10, the “log2 ratio” value was inactive: 0.636.

For the target ANKRD39 C168 (UniProt Q53RE8), the “log2 ratio” value was inactive: 0.164.

Take UniProt Q16513_C131: the “log2 ratio” value is inactive: 0.89.

Turning to PPA1 C254 (UniProt Q15181), the “log2 ratio” value was inactive: 0.16.

Take SLC39A14 C118 (UniProt Q15043): the “log2 ratio” value is inactive: 0.815.

With UniProt Q16352_C54, the “log2 ratio” value is inactive: 0.431.

For PCBP2 C158 (UniProt Q15366), the “log2 ratio” value is inactive: 0.436.

In the case of QRICH1 C701 (UniProt Q2TAL8), the “log2 ratio” value is inactive: 0.701.

Consider ETFDH C561 (UniProt Q16134), for which the “log2 ratio” value is inactive: 0.595.

As to MAP7D1 C361 (UniProt Q3KQU3), the “log2 ratio” value was active: 1.65.

With TCEAL1 C88 (UniProt Q15170), the “log2 ratio” value was inactive: 0.735.

With HSDL1 C328 (UniProt Q3SXM5), the “log2 ratio” value is inactive: 0.374.

Regarding ATG2A C1870 (UniProt Q2TAZ0), the “log2 ratio” value was inactive: 0.179.

Turning to CSRP2 C122 (UniProt Q16527), the “log2 ratio” value is inactive: 0.0039.

As to DECR1 C116 (UniProt Q16698), the “log2 ratio” value is inactive: 0.219.

With ETFDH C592 (UniProt Q16134), the “log2 ratio” value was inactive: 0.434.

For the target RBBP7 C166 (UniProt Q16576), the “log2 ratio” value is inactive: 0.269.

Consider WDR43 C9 (UniProt Q15061), for which the “log2 ratio” value is inactive: 0.216.

For the target MED1 C135 (UniProt Q15648), the “log2 ratio” value is inactive: 0.499.

The record behind these values is the supplement of paper PMC11006884.
